Measured values as given in publication PMC7763487 (2020).
Results are given in words; binding and its absence hold for the method and conditions named. In cells and extracts the contact can be indirect. Binding can be weak; no strength is given. Sequences can lack the tags named with a protein.

The chains behind the UniProt entries cited, without tags or fusion partners. Where a name states a change or a piece, a line headed by the entry shows the natural chain unless it says otherwise.
UniProt Q3URK3: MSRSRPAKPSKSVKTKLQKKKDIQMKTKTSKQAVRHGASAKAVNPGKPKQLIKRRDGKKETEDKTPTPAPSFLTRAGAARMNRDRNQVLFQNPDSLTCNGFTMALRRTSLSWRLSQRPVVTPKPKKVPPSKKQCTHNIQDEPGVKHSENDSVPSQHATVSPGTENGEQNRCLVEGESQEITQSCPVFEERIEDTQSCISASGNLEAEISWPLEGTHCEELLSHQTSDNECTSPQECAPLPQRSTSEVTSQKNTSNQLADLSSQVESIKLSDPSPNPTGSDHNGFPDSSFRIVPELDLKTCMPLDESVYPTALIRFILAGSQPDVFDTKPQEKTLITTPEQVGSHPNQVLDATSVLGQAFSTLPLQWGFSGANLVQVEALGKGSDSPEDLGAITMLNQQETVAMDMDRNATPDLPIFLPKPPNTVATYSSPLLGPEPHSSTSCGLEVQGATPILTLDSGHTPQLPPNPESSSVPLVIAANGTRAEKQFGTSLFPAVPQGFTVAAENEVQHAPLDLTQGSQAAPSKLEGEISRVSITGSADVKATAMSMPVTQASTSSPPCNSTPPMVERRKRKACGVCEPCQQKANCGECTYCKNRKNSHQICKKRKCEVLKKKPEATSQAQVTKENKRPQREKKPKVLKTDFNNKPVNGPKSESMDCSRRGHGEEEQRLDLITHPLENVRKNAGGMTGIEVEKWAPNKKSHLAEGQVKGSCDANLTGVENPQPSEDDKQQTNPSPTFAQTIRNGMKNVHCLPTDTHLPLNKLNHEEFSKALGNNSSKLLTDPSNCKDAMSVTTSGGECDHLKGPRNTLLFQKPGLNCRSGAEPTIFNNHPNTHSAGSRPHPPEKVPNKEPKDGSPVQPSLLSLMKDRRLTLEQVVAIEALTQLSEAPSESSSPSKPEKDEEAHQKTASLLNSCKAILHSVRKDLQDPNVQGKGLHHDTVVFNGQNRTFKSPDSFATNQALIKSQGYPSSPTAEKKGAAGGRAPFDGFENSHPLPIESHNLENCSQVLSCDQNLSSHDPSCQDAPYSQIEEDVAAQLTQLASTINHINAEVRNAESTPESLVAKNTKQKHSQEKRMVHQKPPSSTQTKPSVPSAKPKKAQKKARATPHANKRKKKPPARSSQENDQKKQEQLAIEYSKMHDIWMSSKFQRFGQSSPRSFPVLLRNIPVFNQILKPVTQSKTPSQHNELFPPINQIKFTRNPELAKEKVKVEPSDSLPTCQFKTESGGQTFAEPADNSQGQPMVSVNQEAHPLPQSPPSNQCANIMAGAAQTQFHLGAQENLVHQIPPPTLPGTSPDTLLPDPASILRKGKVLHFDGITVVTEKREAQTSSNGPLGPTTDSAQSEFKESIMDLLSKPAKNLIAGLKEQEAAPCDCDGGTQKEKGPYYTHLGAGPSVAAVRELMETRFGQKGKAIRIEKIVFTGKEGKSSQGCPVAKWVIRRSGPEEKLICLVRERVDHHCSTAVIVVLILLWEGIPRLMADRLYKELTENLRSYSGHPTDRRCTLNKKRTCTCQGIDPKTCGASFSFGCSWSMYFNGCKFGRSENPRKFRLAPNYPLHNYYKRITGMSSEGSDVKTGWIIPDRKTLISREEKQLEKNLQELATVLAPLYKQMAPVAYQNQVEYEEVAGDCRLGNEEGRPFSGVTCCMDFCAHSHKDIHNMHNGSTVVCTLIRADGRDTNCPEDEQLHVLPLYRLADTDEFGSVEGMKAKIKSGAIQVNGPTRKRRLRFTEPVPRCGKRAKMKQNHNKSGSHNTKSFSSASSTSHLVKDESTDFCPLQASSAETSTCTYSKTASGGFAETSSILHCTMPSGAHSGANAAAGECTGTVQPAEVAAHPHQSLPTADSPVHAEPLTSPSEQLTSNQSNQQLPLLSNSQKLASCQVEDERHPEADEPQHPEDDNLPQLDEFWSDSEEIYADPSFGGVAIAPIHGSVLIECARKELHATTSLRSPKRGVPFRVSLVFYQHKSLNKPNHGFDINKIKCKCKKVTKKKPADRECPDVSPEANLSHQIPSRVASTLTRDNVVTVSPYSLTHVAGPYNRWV

Assays:
[1] = target: MBP-TET1 1–120, arginine to alanine mutant within residues 109–120 (mouse) (UniProt Q3URK3); experiment: pull-down; MBP-tagged constructs co-expressed with NANOG constructs in E. coli; bacterial extract (25 mM Tris–HCl pH 8.0, 200 mM NaCl) on amylose resin, one wash, elution with 10 mM maltose, immunoblot of the eluate
[2] = target: MBP-TET1 1–120, glutamine to alanine mutant within residues 109–120 (mouse) (UniProt Q3URK3); experiment: as above
[3] = target: MBP-TET1 1–120, proline to alanine mutant within residues 109–120 (mouse) (UniProt Q3URK3); experiment: as above
[4] = target: MBP-TET1 1–120, serine to alanine mutant within residues 109–120 (mouse) (UniProt Q3URK3); experiment: as above
[5] = target: MBP-TET1 1–120, valine to alanine mutant within residues 109–120 (mouse) (UniProt Q3URK3); experiment: as above
[6] = target: (Flag)3-TET1(1–1547) Δ1+2, serine to alanine mutant within residues 1522–1547 (mouse) (UniProt Q3URK3); experiment: co-IP; (Flag)3-TET1 constructs and (HA)3-NANOG constructs expressed together in E14/T ESCs; Benzonase-treated nuclear protein extracts (350 mM KCl); TET1 immunoprecipitated by its Flag tag, immunoblot; for TET1(734–1169) also after phosphatase treatment of the extracts
[7] = target: (Flag)3-TET1(734–1169), isoleucine to alanine mutant within residues 1156–1169 (mouse) (UniProt Q3URK3); experiment: as above
[8] = target: (Flag)3-TET1(734–1169), leucine to alanine mutant within residues 1156–1169 (mouse) (UniProt Q3URK3); experiment: as above
[9] = target: (Flag)3-TET1(734–1169), proline to alanine mutant within residues 1156–1169 (mouse) (UniProt Q3URK3); experiment: as above

Measured: binding

B1: (His)6-NANOG (protein, UniProt Q80Z64 1-305)
chain: MSVGLPGPHSLPSSEEASNSGNASSMPAVFHPENYSCLQGSATEMLCTEAASPRPSSEDLPLQGSPDSSTSPKQKLSSPEADKGPEEEENKVLARKQKMRTVFSQAQLCALKDRFQKQKYLSLQQMQELSSILNLSYKQVKTWFQNQRMKCKRWQKNQWLKTSNGLIQKGSAPVEYPSIHCSYPQGYLVNASGSLSMWGSQTWTNPTWSSQTWTNPTWNNQTWTNPTWSSQAWTAQSWNGQPWNAAPLHNFGEDFLQPYVQLQQNFSASDLEVNLEATRESHAHFSTPQALELFLNYSVTPPGEI
binds: [1] | [2] | [3] | [4] | [5]

B2: (HA)3-NANOG (protein, UniProt Q80Z64 1-305)
chain: B1 chain
binds: [6] | [7] | [8] | [9]
